PubChem BioAssay AID330 (DTP/NCI, 2004)
The list is a part of this screen's results and no random one: it is rich in T/C values a quarter to a half above the control, in often repeated tests (any T/C) and in doses without a T/C. Further doses and runs are listed elsewhere. T/C is the treated group as % of the vehicle group. Some entries give survivors of the animals treated and no T/C: the source files T/C as zero there, which appears to mark a toxic dose or a test without result, not a measured value. Some survivor counts are full or nearly so, which does not show that the dose was tolerated: the source hardly ever lists a survival T/C far under the control, and the zero likely stands for such cases as well. Survivors were counted at the toxicity check, usually on the fifth day, unless a day is given; later deaths do not show. Schedule codes are those of the source, read here as Q, the interval in days (D) or hours (H), X, the number of doses. Some entries were tested several times; the values are given in rising order. Where survival is the endpoint, this PubChem deposit counts one and a half times the control or more as active, and values a quarter to a half above the control carry no call in these data; other NCI protocols may use other cut-offs. Some T/C values are followed by the survivors on the day toxicity was checked, most often the fifth; without a count, all were alive then.

Tested on: P388 leukemia ip, CD2F1 mice, survival T/C
Assay: NCI In Vivo Anticancer Drug Screen. Data for tumor model P388 Leukemia (intraperitoneal) in CD2F1 (CDF1) mice
Settings: T/C endpoint: median survival time, higher T/C = longer survival
[1] = dose: 120.0 mg/kg/injection, schedule: Q01DX005 (ip), vehicle: saline with Tween-80
[2] = dose: 240.0 mg/kg/injection, schedule: Q01DX005 (ip), vehicle: saline with Tween-80
[3] = dose: 50.0 mg/kg/injection, schedule: Q01DX009 (ip), vehicle: saline
[4] = dose: 6.25 mg/kg/injection, schedule: Q04DX003 (ip), vehicle: saline
[5] = dose: 120.0 mg/kg/injection, schedule: Q01DX005 (ip), vehicle: Klucel (hydroxypropylcellulose) (HPC)
[6] = dose: 240.0 mg/kg/injection, schedule: Q01DX005 (ip), vehicle: Klucel (hydroxypropylcellulose) (HPC)

`Oc1c(Cl)c2nc3ccccc3nc2c2ccccc12` was tested, and the survivor count [1] was 6 of 6 and the survivor count [2] was 0 of 6.

`Cc1cccc2c1/C(=C1/c3ccccc3C(=O)c3cccc(C)c31)c1ccccc1C2=O` was tested, and the survivor count (dose: 200.0 mg/kg/injection, schedule: Q01DX005 (ip), vehicle: Klucel + Tween-80) was 6 of 6.

In the case of `O=C(Oc1ccc[nH]c1=O)c1ccc([N+](=O)[O-])cc1`, the T/C (dose: 100.0 mg/kg/injection, schedule: Q01DX009 (ip), vehicle: saline) is reported as 139 % of control and the T/C (dose: 400.0 mg/kg/injection, schedule: Q01DX009 (ip), vehicle: saline) is reported as 132 % of control.

For `CC1CN1P(=S)(N1CC1C)N1CC1C` (configuration not stated), the T/C (dose: 20.0 mg/kg/injection, schedule: Q01DX010 (ip), vehicle: saline) was 130 % of control.

`C=CCOc1ccccc1/C=N/[N+](C)(C)C` was tested, and the survivor count [3] was 0 of 6.

For `C/C(=N/NC(=S)NCc1ccccc1)c1ncccn1`, the survivor count (dose: 100.0 mg/kg/injection, schedule: Q01DX005 (ip), vehicle: saline with Tween-80) was 3 of 6 and the survivor count (dose: 200.0 mg/kg/injection, schedule: Q01DX005 (ip), vehicle: saline with Tween-80) was 0 of 6.

In the case of `CC[CH2][Sn]([F])([F])[CH2]CC`, the T/C (dose: 3.12 mg/kg/injection, schedule: Q04DX003 (ip), vehicle: saline) is reported as 128 % of control, the T/C [4] is reported as 129 % of control and the survivor count [4] is reported as 0 of 6. For the same molecule, the survivor count (dose: 25.0 mg/kg/injection, schedule: Q04DX003 (ip), vehicle: saline) was 0 of 6, the survivor count (dose: 100.0 mg/kg/injection, schedule: Q04DX003 (ip), vehicle: saline) was 0 of 6 and the survivor count (dose: 200.0 mg/kg/injection, schedule: Q04DX003 (ip), vehicle: saline) was 0 of 6. The survivor count (dose: 400.0 mg/kg/injection, schedule: Q04DX003 (ip), vehicle: saline) was 0 of 6.

In the case of `CCOC(=O)C1=C(O)C(=O)NC1c1ccccc1` (configuration not stated), the survivor count [5] is reported as 0 of 6 and the survivor count [6] is reported as 0 of 6.

For `CCN(CC)CCOC(=O)Cc1cccc2c(=O)cc(-c3ccc(OC)cc3)oc12`, the T/C (dose: 50.0 mg/kg/injection, schedule: Q01DX005 (ip), vehicle: Klucel (hydroxypropylcellulose) (HPC)) was 138 % of control, the T/C (dose: 100.0 mg/kg/injection, schedule: Q01DX005 (ip), vehicle: Klucel (hydroxypropylcellulose) (HPC)) was 127 % of control [5 of 6 alive] and the survivor count (dose: 200.0 mg/kg/injection, schedule: Q01DX005 (ip), vehicle: Klucel (hydroxypropylcellulose) (HPC)) was 1 of 6.

For `Nc1[nH]c(=S)[nH]c(=O)c1NS(=O)(=O)c1ccccc1`, the T/C [5] was 142 % of control and the T/C [6] was 149 % of control.

`CNC(=O)OCc1c(COC(=O)NC)c(C)n(-c2ccc(Cl)c(Cl)c2)c1C` was tested, and the T/C (dose: 25.0 mg/kg/injection, schedule: Q01DX009 (ip), vehicle: saline) was 148 % of control and the survivor count [3] was 5 of 6 and 6 of 6.

With `N#CC(C#N)=CNCC1CC1` the survivor count [5] was 3 of 6 and the survivor count [6] was 0 of 6.

`CC(C)(O)C1OCC(C2CCC3(C)C4=CCC5C(C)(C)C(O)CCC5(C)C4CCC23C)CC1O` (configuration not stated) was tested, and the T/C (dose: 1.25 mg/kg/injection, schedule: Q01DX009 (ip), vehicle: alcohol) was 130 % of control, the T/C (dose: 2.5 mg/kg/injection, schedule: Q01DX009 (ip), vehicle: alcohol) was 127 % of control and the T/C (dose: 5.0 mg/kg/injection, schedule: Q01DX009 (ip), vehicle: alcohol) was 136 % of control. For the same molecule, the T/C (dose: 10.0 mg/kg/injection, schedule: Q01DX009 (ip), vehicle: alcohol) was 130 % of control.

`CCN=C1SC2C(=O)N(C)C(S1)C(=O)N2C` was tested, and the survivor count (dose: 100.0 mg/kg/injection, schedule: Q04DX002 (ip), vehicle: saline with Tween-80) was 0 of 6, the survivor count (dose: 200.0 mg/kg/injection, schedule: Q04DX002 (ip), vehicle: saline with Tween-80) was 0 of 6 and the survivor count (dose: 400.0 mg/kg/injection, schedule: Q04DX002 (ip), vehicle: saline with Tween-80) was 0 of 6.

In the case of `O=S(=O)(O)c1cc2cc(S(=O)(=O)O)c3nnc4cc(S(=O)(=O)O)cc5cc(S(=O)(=O)O)c(nnc6cc(S(=O)(=O)O)cc7cc(S(=O)(=O)O)c(nnc(c1)c2c3O)c(O)c76)c(O)c54`, the survivor count [1] is reported as 0 of 6 and 1 of 6 and the survivor count [2] is reported as 0 of 6.

For `CCC1COC(Nc2cccc3c2CCCC3)=N1` (configuration not stated), the survivor count (dose: 400.0 mg/kg/injection, schedule: Q01DX001 (ip), vehicle: saline with Tween-80) was 2 of 6.

For `COc1cc(N(CCCl)CCCl)c(OC)cc1C=Nc1ccccc1C(=O)O`, the survivor count (dose: 3.12 mg/kg/injection, schedule: Q01DX009 (ip), vehicle: saline) was 4 of 6, the survivor count (dose: 6.25 mg/kg/injection, schedule: Q01DX009 (ip), vehicle: saline) was 5 of 6 and the T/C (dose: 6.25 mg/kg/injection, schedule: Q01DX009 (ip), vehicle: suspension in saline) was 128 % of control. The T/C (dose: 12.5 mg/kg/injection, schedule: Q01DX009 (ip), vehicle: saline) was 125 % of control, the T/C (dose: 12.5 mg/kg/injection, schedule: Q01DX009 (ip), vehicle: suspension in saline) was 148 % of control and the survivor count (dose: 25.0 mg/kg/injection, schedule: Q01DX009 (ip), vehicle: suspension in saline) was 6 of 6.

With `CC1=CC(=O)C=CC1=Nc1ccc(N(C)C)cc1` the survivor count (dose: 100.0 mg/kg/injection, schedule: Q01DX009 (ip), vehicle: saline with Tween-80) was 3 of 6.

In the case of `CCOC(=O)/C=C/CI`, the T/C (dose: 100.0 mg/kg/injection, schedule: Q01DX009 (ip), vehicle: other) is reported as 126 % of control and the survivor count (dose: 200.0 mg/kg/injection, schedule: Q01DX009 (ip), vehicle: other) is reported as 0 of 6, 1 of 6, 4 of 6.

For `N#CCCC[n+]1cc2ccccc2c2ccccc21`, the survivor count (dose: 200.0 mg/kg/injection, schedule: Q01DX005 (ip), vehicle: saline) was 3 of 5.
